Experimental data taken from publication PMC12309053.
These are yes or no findings as the source states them, for the method shown. Binding seen in cells or lysates may run through a third protein. Some results given as binding are weak or reduced against the parent protein; the word gives no strength. Where a sequence is shown, tags or fusion partners need not be part of it.

Protein sequences, listed by entry. Tags and fused reporters are not part of them.
UniProt P49760: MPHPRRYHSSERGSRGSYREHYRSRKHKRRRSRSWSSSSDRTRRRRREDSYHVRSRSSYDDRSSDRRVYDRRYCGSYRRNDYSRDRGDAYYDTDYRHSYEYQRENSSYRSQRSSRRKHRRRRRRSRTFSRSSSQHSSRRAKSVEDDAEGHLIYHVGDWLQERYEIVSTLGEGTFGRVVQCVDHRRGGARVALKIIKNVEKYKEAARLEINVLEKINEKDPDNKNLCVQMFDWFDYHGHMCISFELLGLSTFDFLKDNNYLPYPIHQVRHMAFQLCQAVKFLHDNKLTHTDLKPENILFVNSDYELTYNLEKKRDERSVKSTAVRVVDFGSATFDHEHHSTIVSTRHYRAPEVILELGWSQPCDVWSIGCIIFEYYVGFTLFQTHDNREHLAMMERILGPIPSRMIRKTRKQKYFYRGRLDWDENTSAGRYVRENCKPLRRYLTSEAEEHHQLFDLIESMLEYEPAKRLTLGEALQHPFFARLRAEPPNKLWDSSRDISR

Target: T1, SRSF7-GFP fusion product (Serine/arginine-rich splicing factor 7, GFP-tagged at the C-terminus, from a BAC) (human) (UniProt Q16629)
T1 sequence: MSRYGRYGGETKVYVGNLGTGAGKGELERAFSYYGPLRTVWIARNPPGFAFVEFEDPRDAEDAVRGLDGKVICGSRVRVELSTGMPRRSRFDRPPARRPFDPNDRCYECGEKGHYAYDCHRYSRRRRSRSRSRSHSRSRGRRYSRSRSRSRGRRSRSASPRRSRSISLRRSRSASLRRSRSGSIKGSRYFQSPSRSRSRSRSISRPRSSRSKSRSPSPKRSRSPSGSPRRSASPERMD
Assay: co-IP; GFP-Trap agarose beads on lysates of BAC-SRSF7-GFP MDA-MB-231 cells treated with 0.1% DMSO or 1 µM T-025 for 24 h; EBC buffer, benzonase, 300 mM NaCl, 2 h at 4 °C; six washes; Western blotting; MDA-MB-231-GFP cells as negative control

binding: binds
Substance: CLK2 (from UniProt P49760 1-499)
